Experimental data as given in publication PMC6542543.
Results are given in words; binding and its absence hold for the method and conditions named. In cells and extracts the contact can be indirect. Some entries that bind do so weakly or less than the wild type.

T1: PolD (Drosophila melanogaster (endogenous in embryos)) (UniProt P54358)
T1 sequence: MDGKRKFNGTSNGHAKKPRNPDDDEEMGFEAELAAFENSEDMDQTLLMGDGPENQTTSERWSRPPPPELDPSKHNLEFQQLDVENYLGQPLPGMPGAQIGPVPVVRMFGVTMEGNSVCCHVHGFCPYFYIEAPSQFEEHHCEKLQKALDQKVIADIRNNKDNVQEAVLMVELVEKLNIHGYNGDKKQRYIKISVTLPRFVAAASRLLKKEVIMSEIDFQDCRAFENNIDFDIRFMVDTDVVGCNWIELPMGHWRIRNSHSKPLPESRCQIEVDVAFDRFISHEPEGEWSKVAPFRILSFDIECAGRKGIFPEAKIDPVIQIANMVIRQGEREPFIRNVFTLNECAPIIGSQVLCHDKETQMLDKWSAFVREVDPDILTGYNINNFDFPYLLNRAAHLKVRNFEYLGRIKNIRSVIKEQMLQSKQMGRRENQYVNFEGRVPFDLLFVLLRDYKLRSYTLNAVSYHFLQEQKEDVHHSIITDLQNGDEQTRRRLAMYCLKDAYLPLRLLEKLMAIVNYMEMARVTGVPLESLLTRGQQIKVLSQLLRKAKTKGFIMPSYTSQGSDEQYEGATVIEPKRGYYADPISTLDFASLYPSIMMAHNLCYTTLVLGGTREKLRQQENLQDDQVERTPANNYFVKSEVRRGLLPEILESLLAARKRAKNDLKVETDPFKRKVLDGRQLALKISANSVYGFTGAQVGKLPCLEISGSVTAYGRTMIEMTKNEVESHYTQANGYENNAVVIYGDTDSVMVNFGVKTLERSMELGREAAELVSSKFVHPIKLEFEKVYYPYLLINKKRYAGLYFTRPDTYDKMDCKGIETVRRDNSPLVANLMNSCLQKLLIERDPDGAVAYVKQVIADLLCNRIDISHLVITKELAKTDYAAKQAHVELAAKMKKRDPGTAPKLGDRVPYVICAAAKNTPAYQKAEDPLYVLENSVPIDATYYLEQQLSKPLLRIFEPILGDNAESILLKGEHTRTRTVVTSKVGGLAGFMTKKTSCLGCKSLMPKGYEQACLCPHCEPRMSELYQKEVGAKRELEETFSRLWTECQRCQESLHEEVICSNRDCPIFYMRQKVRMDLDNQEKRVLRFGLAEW

T2: Pol31 (Drosophila melanogaster (endogenous in embryos)) (UniProt Q9W088)
T2 sequence: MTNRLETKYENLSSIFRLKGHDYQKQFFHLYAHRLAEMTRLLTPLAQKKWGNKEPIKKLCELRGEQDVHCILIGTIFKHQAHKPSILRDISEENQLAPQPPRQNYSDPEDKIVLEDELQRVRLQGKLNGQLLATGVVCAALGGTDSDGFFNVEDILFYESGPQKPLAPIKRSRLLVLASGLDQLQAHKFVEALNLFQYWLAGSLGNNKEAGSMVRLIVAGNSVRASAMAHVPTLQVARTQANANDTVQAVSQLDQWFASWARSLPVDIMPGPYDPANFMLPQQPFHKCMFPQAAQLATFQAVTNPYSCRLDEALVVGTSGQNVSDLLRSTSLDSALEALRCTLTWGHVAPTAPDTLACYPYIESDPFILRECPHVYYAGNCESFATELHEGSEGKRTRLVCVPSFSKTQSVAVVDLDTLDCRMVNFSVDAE

B1: Pol32 (protein, UniProt Q9Y118 1-431)
chain: MSLKKALDDCMIDFDRCVLVTDLLEEYKLSYKEVNDVLEAYIKEQEPATKFEKRFLVHGKRKTQGSDSGEDLYSVVLESRMQDWLAKVQDAESQLYSVKIAGGTKAPAAIFKPMQHLEVKLAKVEQRPGAGKIVPSANGTTPHNGVKSEPTKSEPSKSAVKLEPSKSSLKSEPAKSKAEKPVASKSSPEDKKTSPKEQASKAKPAAAKKGSINSFFTAAASKPKDVKATPSKSTSGTVDNFFKKQPAGAKKSPPESEDKSKKDASNSNKKEASKKKSPSPTKKPTTANTSMQLFDEESAESSDEEEKLDMLRRKVIESDNDSDQEKASSSKRRRISDSEDEEQPPKKSADEETIALDEKMDTEPANETYLDEDGFVITQRKPTKAQPANKKVSPKAAAPVNKKKSPPSAAKAGKDAPKTKQAGIMNFFSKK
B2: PolD (protein, UniProt P54358 1-1092)
chain: T1 sequence

Tests used:
[1] = target: T1, PolD (Drosophila melanogaster (endogenous in embryos)); test: co-IP; extracts of early embryos (wild type; also pol32 mutant) in PBS with 0.3% Triton X-100 and protease inhibitors; IP with anti-PolD serum, purified anti-Pol32 antibody or anti-Pol31 serum, 3 h at 4°C; Protein A/G agarose; Western blot; pre-immune serum as control
[2] = target: T2, Pol31 (Drosophila melanogaster (endogenous in embryos)); test: as above

| Binder | binding [1] | binding [2] |
| --- | --- | --- |
| B1 | binds | binds |
| B2 |  | binds |
